Measurements: article PMC10319584
These are yes or no findings as the source states them, for the method shown. Binding seen in cells or lysates may run through a third protein. A yes stands for co-enrichment or nearness to the bait. Other partners may have been found. Tags and fused reporters may be left off the sequences shown.

Sequences of proteins named here, by UniProt entry; tags and fusion partners are left off. Residues count along the entry.
UniProt Q9BQA1: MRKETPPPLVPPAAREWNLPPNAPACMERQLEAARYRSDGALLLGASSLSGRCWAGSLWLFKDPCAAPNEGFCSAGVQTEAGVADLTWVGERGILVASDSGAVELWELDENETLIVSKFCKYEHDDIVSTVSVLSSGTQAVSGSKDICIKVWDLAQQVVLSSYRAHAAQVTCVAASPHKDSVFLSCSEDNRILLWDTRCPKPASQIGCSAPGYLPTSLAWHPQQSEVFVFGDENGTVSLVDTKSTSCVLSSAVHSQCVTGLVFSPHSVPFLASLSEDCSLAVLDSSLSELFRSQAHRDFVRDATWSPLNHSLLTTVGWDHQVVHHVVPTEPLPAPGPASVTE
UniProt P12004: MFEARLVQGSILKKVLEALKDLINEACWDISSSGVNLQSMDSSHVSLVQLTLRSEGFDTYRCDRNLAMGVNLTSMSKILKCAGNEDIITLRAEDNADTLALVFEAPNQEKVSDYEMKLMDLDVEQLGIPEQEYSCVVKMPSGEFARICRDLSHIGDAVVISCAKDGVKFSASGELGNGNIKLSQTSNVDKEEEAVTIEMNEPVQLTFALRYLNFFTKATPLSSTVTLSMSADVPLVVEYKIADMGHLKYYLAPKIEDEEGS
UniProt P62136: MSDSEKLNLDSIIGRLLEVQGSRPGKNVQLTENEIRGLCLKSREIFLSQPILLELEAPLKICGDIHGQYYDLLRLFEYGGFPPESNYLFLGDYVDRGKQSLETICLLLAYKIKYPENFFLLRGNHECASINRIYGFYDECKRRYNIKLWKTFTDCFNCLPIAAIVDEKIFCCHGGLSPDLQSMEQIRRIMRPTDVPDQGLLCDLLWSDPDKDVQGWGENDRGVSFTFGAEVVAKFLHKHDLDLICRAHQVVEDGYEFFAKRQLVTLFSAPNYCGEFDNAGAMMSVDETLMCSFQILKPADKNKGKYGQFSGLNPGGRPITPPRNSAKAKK
UniProt Q07021, residues 74-282: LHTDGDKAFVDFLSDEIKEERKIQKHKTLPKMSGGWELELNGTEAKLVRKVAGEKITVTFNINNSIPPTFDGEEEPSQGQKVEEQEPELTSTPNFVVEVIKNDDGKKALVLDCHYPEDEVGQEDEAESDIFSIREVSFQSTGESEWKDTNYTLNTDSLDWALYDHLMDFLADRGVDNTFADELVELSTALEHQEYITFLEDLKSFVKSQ
UniProt P54105: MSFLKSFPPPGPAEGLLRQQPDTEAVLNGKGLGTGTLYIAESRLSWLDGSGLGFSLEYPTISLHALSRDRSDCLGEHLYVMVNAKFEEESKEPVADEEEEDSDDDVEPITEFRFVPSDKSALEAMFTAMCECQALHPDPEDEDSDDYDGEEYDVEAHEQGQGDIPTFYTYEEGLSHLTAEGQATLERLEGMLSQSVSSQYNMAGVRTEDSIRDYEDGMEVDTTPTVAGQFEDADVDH
UniProt Q9Y657: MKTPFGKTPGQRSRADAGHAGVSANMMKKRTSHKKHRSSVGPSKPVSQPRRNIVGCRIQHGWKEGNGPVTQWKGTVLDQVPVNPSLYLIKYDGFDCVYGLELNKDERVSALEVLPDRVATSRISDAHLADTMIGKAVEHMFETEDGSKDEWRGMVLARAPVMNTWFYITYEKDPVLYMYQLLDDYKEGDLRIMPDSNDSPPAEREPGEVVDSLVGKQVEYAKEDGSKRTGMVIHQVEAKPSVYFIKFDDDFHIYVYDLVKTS
UniProt P31946: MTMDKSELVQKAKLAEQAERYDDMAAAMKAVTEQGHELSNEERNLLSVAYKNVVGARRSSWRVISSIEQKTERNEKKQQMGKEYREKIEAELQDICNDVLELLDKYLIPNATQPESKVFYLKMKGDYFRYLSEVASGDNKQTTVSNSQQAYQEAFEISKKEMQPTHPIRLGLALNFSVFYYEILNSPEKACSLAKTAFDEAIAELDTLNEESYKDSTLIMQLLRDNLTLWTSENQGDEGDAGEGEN
UniProt P78417: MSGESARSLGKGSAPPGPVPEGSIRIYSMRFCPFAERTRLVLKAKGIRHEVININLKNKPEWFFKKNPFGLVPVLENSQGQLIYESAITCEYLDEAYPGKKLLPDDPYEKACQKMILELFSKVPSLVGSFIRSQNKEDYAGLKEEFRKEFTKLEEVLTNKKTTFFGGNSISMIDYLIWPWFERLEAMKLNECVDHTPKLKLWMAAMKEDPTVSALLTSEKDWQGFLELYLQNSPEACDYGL
UniProt O94903: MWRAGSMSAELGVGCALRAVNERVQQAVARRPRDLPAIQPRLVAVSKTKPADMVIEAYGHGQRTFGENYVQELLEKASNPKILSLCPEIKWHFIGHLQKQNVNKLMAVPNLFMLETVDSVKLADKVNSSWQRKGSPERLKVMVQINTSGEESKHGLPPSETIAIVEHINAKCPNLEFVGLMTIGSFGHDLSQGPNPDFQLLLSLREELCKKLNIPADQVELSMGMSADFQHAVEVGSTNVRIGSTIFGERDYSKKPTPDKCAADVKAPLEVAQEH

T1: FLAG-Fra-1 (Fos-related antigen 1) (UniProt P15407)
T1 sequence: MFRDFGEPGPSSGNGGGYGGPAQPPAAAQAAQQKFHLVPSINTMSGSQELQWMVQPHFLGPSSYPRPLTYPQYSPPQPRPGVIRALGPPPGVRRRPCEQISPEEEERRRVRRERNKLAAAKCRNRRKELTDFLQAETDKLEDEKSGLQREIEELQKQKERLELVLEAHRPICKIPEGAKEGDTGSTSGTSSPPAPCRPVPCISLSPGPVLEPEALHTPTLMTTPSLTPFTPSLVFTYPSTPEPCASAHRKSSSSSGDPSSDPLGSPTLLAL


Target: T1, FLAG-Fra-1 (Fos-related antigen 1)
Assay: affinity purification with mass spectrometry; FLAG-Fra-1 precipitated with anti-FLAG affinity gel beads from SGC7901 cells; SDS-PAGE, Coomassie stain, band at 25~40 kDa cut out, trypsin digest, LC-MS/MS; proteins specific to the FLAG lane against the IgG lane

Row | Molecule | binding
1 | Methylosome protein 50 (from UniProt Q9BQA1 1-342) | binds
2 | Proliferating cell nuclear antigen (from UniProt P12004 1-261) | binds
3 | Serine/threonine-protein phosphatase PP1-alpha catalytic subunit (from UniProt P62136 1-330) | binds
4 | Complement component 1 Q subcomponent-binding protein, mitochondrial (from UniProt Q07021 74-282) | binds
5 | tyrosine 3-monooxygenase/tryptophan 5-monooxygenase activation protein eta (YWHAH) (protein, UniProt Q04917 1-246) MGDREQLLQRARLAEQAERYDDMASAMKAVTELNEPLSNEDRNLLSVAYKNVVGARRSSWRVISSIEQKTMADGNEKKLEKVKAYREKIEKELETVCNDVLSLLDKFLIKNCNDFQYESKVFYLKMKGDYYRYLAEVASGEKKNSVVEASEAAYKEAFEISKEQMQPTHPIRLGLALNFSVFYYEIQNAPEQACLLAKQAFDDAIAELDTLNEDSYKDSTLIMQLLRDNLTLWTSDQQDEEAGEGN | binds
6 | Fructose-bisphosphate aldolase (protein, UniProt P04075 1-364) MPYQYPALTPEQKKELSDIAHRIVAPGKGILAADESTGSIAKRLQSIGTENTEENRRFYRQLLLTADDRVNPCIGGVILFHETLYQKADDGRPFPQVIKSKGGVVGIKVDKGVVPLAGTNGETTTQGLDGLSERCAQYKKDGADFAKWRCVLKIGEHTPSALAIMENANVLARYASICQQNGIVPIVEPEILPDGDHDLKRCQYVTEKVLAAVYKALSDHHIYLEGTLLKPNMVTPGHACTQKFSHEEIAMATVTALRRTVPPAVTGITFLSGGQSEEEASINLNAINKCPLLKPWALTFSYGRALQASALKAWGGKKENLKAAQEEYVKRALANSLACQGKYTPSGQAGAAASESLFVSNHAY | binds

Next, values leading:

Row | binding | Molecule
7 | binds | Methylosome subunit pICln (from UniProt P54105 1-237)
8 | binds | Spindlin-1 (from UniProt Q9Y657 1-262)
9 | binds | 14-3-3 protein beta/alpha (from UniProt P31946 1-246)
10 | binds | Glutathione S-transferase omega-1 (Fragment) (from UniProt P78417 1-241)
11 | binds | Pyridoxal phosphate homeostasis protein (from UniProt O94903 1-275)
12 | binds | Elongation factor 1-beta (protein, UniProt P24534 1-225) MGFGDLKSPAGLQVLNDYLADKSYIEGYVPSQADVAVFEAVSSPPPADLCHALRWYNHIKSYEKEKASLPGVKKALGKYGPADVEDTTGSGATDSKDDDDIDLFGSDDEEESEEAKRLREERLAQYESKKAKKPALVAKSSILLDVKPWDDETDMAKLEECVRSIQADGLVWGSSKLVPVGYGIKKLQIQCVVEDDKVGTDMLEEQITAFEDYVQSMDVAAFNKI
